# Laboratory results taken from the supplement of paper PMC10338343.
# ± gives the standard deviation. The list shows a part of the results, in another mix than the full data. Many entries were measured with a wide error. The list shows a part of the results.
# Experiments:
# [1] = system: MILI (PIWIL2) piRISC loaded with L1MC piRNA (26 nt); test: pre-steady-state target cleavage rate (min^-1); higher = faster piRNA-guided slicing of the target; details: guide: L1MC piRNA 5'p-UAACUAAAUACUAUGCAAGCUGUAGG
# How it was run: (§1)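 A transcribed, DNA-blocked target RNA library (0.1 nM) and 1 nM active affinity-purified piRISC bearing one synthetic guide were incubated in HEPES–potassium acetate buffer at 33 °C for 0–8 or 0–960 min, either with or without 500 nM GTSF1 partner protein. Uncleaved targets were sequenced, normalised to depth and to weakly complementary targets, and pooled over three trials, with k3 capped at 0.0001 min^-1. The pre-steady-state cleavage rate was derived with a burst-and-steady-state fit.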
# [2] = system: MIWI (PIWIL1) piRISC loaded with L1MC piRNA (30 nt); test: as above; details: guide: L1MC piRNA 5'p-UAACUAAAUACUAUGCAAGCUGUAGGUCCU
# How it was run: as §1
# [3] = system: EfPiwi piRISC loaded with L1MC piRNA (26 nt); test: pre-steady-state target cleavage rate (min^-1); guide: L1MC piRNA 5'p-UAACUAAAUACUAUGCAAGCUGUAGG; MIWI and MILI are mouse PIWI proteins and EfPiwi is from a freshwater sponge; tags in brackets are library labels; higher = faster piRNA-guided slicing of the target
# How it was run: as §1
# [4] = auxiliary factor: 500 nM mouse GTSF1
# [5] = auxiliary factor: none (no GTSF1)
# [6] = auxiliary factor: 500 nM Ephydatia muelleri Gtsf1
# [7] = auxiliary factor: none (no Gtsf1)
Sequence,"pre-steady-state target cleavage rate [1, 4]","pre-steady-state target cleavage rate [1, 5]","pre-steady-state target cleavage rate [2, 4]","pre-steady-state target cleavage rate [2, 5]","pre-steady-state target cleavage rate [3, 6]","pre-steady-state target cleavage rate [3, 7]"
UCCUGGAUGUCGUUGCAUAUAUUUAGUUA,0.000524 ± 0.015,0.000179 ± 0.016,0.000465 ± 0.022,0.000743 ± 0.014,0.000342 ± 0.011,0.000358 ± 0.019
UCCUGGAUGUCCUUGCAUGUAUUUAGUUA,0.0026 ± 0.0041,0.00112 ± 0.0053,0.00306 ± 0.004,0.00183 ± 0.0035,0.00166 ± 0.0055,0.000499 ± 0.013
UCCUGGAUGUCCUUGCAUAGGAUUUAGUUA,0.00327 ± 0.004,0.0015 ± 0.0042,,0.00136 ± 0.0048,0.000987 ± 0.0048,0.000271 ± 0.023
UCCUGGAUGUCGAUGCAAUAGUAUUUAGUUA,0.00497 ± 0.0023,0.000974 ± 0.0065,0.000666 ± 0.011,0.000721 ± 0.0089,0.00119 ± 0.008,0.000113 ± 0.026
UCCUGGAUGUCGAUGCAUAGUAUUUAUUA,0.00695 ± 0.0047,0.000422 ± 0.013,0.00059 ± 0.021,0.000686 ± 0.0094,0.000454 ± 0.0093,0.000269 ± 0.026
UCCUGGAUGAGCUUGCAUAAGUAUUUAGUUA,0.00282 ± 0.0053,0.000965 ± 0.0059,0.00151 ± 0.0077,0.000368 ± 0.01,0.00127 ± 0.0042,0.00103 ± 0.009
UCCUGGAUGUCGAAGCAUAGUUUUUAGUUA,0.00892 ± 0.0039,0.00397 ± 0.0017,0.0012 ± 0.0088,0.00125 ± 0.0051,0.000302 ± 0.0098,< 0.0001
UCCUGCAACAGCUUGCAUAGUAUUUAGAAA,0.138 ± 0.026,0.00152 ± 0.0057,0.429 ± 0.059,0.00469 ± 0.0034,0.00432 ± 0.0016,0.000243 ± 0.026
UCCUGGAUGUGCUUGCAUACUUUUUAGUUA,0.00203 ± 0.0082,0.0037 ± 0.0027,0.00313 ± 0.0059,0.00252 ± 0.0038,0.00194 ± 0.0042,0.000128 ± 0.061
UCCUGGAUGUCGUUGCAUACUAUUAAGUUA,0.000876 ± 0.009,0.000346 ± 0.017,0.000577 ± 0.016,0.000199 ± 0.04,0.000167 ± 0.017,0.000254 ± 0.029
UCCUGGAUGUGGUUGCAUACUAUUUAGUUA,0.0175 ± 0.0072,0.00525 ± 0.0036,0.00469 ± 0.006,0.00133 ± 0.0064,0.00252 ± 0.0027,0.000321 ± 0.044
UCCUGGAUGAGCUUGCUUAGAAUUUAGUUA,0.0121 ± 0.0047,0.00218 ± 0.0033,0.0359 ± 0.0063,0.00574 ± 0.0024,0.000461 ± 0.0083,0.000446 ± 0.016
UCCUGGAUGUGCUUGCAUUCAAUUUAGUUA,0.00164 ± 0.0063,0.00224 ± 0.0028,0.000733 ± 0.014,0.000702 ± 0.0074,0.000332 ± 0.011,0.000124 ± 0.074
UCCUGGAACUGCUAGCAUAGUAUUUAGUUA,0.215 ± 0.015,0.00611 ± 0.0019,0.534 ± 0.037,0.00949 ± 0.0035,0.0171 ± 0.0058,0.0012 ± 0.0073
UCCUGGAUGUGCUUGCUAUGUAUUUAGUAA,0.00203 ± 0.0054,0.00161 ± 0.0045,0.00114 ± 0.0092,0.00133 ± 0.0051,0.000479 ± 0.0081,0.000154 ± 0.054
UCCUGGAUGUCGAAGCAUAGAUUUAGUUA,0.000952 ± 0.0094,0.00121 ± 0.0046,0.000335 ± 0.032,0.00132 ± 0.0058,0.000757 ± 0.0071,0.000501 ± 0.012
UCCUGGAUGUCGUUGCAUAGUAUUUAGAUUA,0.0205 ± 0.0091,0.00101 ± 0.0074,0.00118 ± 0.007,0.00101 ± 0.0084,0.00133 ± 0.0052,0.000417 ± 0.016
UCCUGGUUACAGCUUGCAUAGUAUUUAGUUA,0.256 ± 0.025,0.03 ± 0.0078,1.01 ± 0.048,0.0561 ± 0.011,0.0881 ± 0.021,0.00968 ± 0.0057

Sequence,"pre-steady-state target cleavage rate [1, 4]","pre-steady-state target cleavage rate [1, 5]","pre-steady-state target cleavage rate [2, 4]","pre-steady-state target cleavage rate [2, 5]","pre-steady-state target cleavage rate [3, 6]","pre-steady-state target cleavage rate [3, 7]"
UCCUGGAUGUCGUUGCAUGUAUUUAGUUA,0.00113 ± 0.0078,0.00127 ± 0.0048,0.000491 ± 0.018,0.00145 ± 0.005,0.000271 ± 0.015,< 0.0001
UCCUGGAUGUCGAAGCAAAGUAUUAAGUUA,0.000604 ± 0.012,0.000462 ± 0.012,0.000459 ± 0.022,0.000607 ± 0.013,0.000792 ± 0.0078,0.000162 ± 0.037
UCCUGGAUGUCGAAGCAAAGUAUUUAGUUA,0.00206 ± 0.0046,0.00124 ± 0.004,0.000802 ± 0.012,0.0007 ± 0.0076,0.000997 ± 0.0053,0.000288 ± 0.025
UCCUGGAUGAGCUACCAUAGUAUUUAGUAA,0.1 ± 0.018,0.00158 ± 0.005,0.00153 ± 0.0068,0.000968 ± 0.0096,0.000569 ± 0.0078,0.000716 ± 0.0093
UCCUGGAUGUCCUUGCAUAUGUAUUUAGUUA,0.00374 ± 0.004,0.00205 ± 0.0037,0.0019 ± 0.0059,0.00127 ± 0.0067,0.00151 ± 0.0067,0.000853 ± 0.0084
UCCUGGAACAGCUUGCAUAGUACUUUAGUUA,0.168 ± 0.015,0.00486 ± 0.0022,0.472 ± 0.036,0.00827 ± 0.0032,0.00922 ± 0.0033,0.00109 ± 0.012
UCCUGCUACAGCUUGGUAAGUAUUUAGAAA,0.0107 ± 0.0045,0.000725 ± 0.0083,0.00235 ± 0.0044,0.000234 ± 0.013,0.00103 ± 0.0049,< 0.0001
UCCUGGAUGACCUUCCAUAGUAUUUAGUUA,0.024 ± 0.0096,0.00133 ± 0.0063,0.0036 ± 0.0052,0.000838 ± 0.0072,0.00191 ± 0.0055,0.000317 ± 0.028
UCCUGGAUGUGCUUGCAUACAUUUUAGAAA,0.000625 ± 0.014,0.000426 ± 0.012,0.000882 ± 0.012,0.000631 ± 0.009,0.000332 ± 0.0095,0.000156 ± 0.042
UCCUGGAUGUCGUUGCAUAGUAUUUAGUA,0.148 ± 0.022,0.00424 ± 0.0026,0.00151 ± 0.0062,0.00275 ± 0.0036,0.00202 ± 0.0044,0.000125 ± 0.062
UCCUGGAUGUCCUUGCAUAGUUUUAAGUUA,0.0115 ± 0.0059,0.00312 ± 0.0026,0.00271 ± 0.0057,0.00233 ± 0.0036,0.000995 ± 0.0052,0.000362 ± 0.02
UCCUGGAUGUGCUUGCAUAAGUAUUUAGUUA,0.00245 ± 0.0046,0.000994 ± 0.0061,0.00185 ± 0.0058,0.000977 ± 0.0075,0.00155 ± 0.0026,0.000286 ± 0.031
UCCUGGAUGACGCUUGCAUAGUAUUUAGUUA,0.211 ± 0.022,0.00493 ± 0.0037,0.911 ± 0.059,0.0648 ± 0.0085,0.0537 ± 0.014,0.000728 ± 0.02
UCCUGGAUGUGCUUCGUUAGUAUUUAGUUA,0.00476 ± 0.0034,0.00211 ± 0.0039,0.000882 ± 0.013,0.00046 ± 0.011,0.000306 ± 0.0093,0.000447 ± 0.018
UCCUGGAUGUCCUUGCAUAGUAUUUUCUAA,0.0134 ± 0.0068,0.00293 ± 0.0033,0.00274 ± 0.0055,0.00187 ± 0.0041,0.00147 ± 0.0054,0.000194 ± 0.039
UCCUGGAUGUGCUUGCAUAGUUUUAGUUA,0.00191 ± 0.0061,0.00114 ± 0.0049,0.0028 ± 0.0052,0.00176 ± 0.0052,0.0014 ± 0.0064,0.000283 ± 0.032
UCCUGGAACAGCUUGCAUGAGUAUUUAGUUA,0.00284 ± 0.0051,0.00252 ± 0.0028,0.00209 ± 0.0069,0.000965 ± 0.0085,0.00082 ± 0.0035,0.000508 ± 0.013

# A second format for part of the listing above:
Sequence	pre-steady-state target cleavage rate [1, 4]	pre-steady-state target cleavage rate [1, 5]	pre-steady-state target cleavage rate [2, 4]	pre-steady-state target cleavage rate [2, 5]	pre-steady-state target cleavage rate [3, 6]	pre-steady-state target cleavage rate [3, 7]
UCCUGGAUGUCGAUGCAAUAGUAUUUAGUUA	0.00497 ± 0.0023	0.000974 ± 0.0065	0.000666 ± 0.011	0.000721 ± 0.0089	0.00119 ± 0.008	0.000113 ± 0.026
UCCUGGAUGAGCUACCAUAGUAUUUAGUAA	0.1 ± 0.018	0.00158 ± 0.005	0.00153 ± 0.0068	0.000968 ± 0.0096	0.000569 ± 0.0078	0.000716 ± 0.0093
